Test results published in paper PMC9947421.
Where two headings read alike, the source gives them in different places. No constants are given. Whether binding was seen depends on the method and setting. In cells and extracts the contact can be indirect. These calls come from enrichment with a bait or labelling near it, and not all partners need be listed. Each block holds one molecule with its values, some of them ahead of it.

By UniProt entry, the sequences of proteins in these tests, tags left out. Where a name states a change or a piece, a line headed by the entry shows the natural chain unless it says otherwise.
UniProt Q99594: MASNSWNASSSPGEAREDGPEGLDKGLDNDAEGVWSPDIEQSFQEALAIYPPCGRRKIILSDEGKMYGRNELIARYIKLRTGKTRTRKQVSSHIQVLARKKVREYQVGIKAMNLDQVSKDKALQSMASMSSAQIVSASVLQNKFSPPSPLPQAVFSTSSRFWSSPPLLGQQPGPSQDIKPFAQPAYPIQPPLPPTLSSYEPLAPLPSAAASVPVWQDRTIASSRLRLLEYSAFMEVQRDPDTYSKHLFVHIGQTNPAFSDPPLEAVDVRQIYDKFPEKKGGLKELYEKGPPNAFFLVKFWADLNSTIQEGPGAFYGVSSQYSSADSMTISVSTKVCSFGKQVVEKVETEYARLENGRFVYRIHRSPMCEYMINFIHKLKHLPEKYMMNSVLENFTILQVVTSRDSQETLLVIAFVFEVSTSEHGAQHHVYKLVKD
UniProt P78527: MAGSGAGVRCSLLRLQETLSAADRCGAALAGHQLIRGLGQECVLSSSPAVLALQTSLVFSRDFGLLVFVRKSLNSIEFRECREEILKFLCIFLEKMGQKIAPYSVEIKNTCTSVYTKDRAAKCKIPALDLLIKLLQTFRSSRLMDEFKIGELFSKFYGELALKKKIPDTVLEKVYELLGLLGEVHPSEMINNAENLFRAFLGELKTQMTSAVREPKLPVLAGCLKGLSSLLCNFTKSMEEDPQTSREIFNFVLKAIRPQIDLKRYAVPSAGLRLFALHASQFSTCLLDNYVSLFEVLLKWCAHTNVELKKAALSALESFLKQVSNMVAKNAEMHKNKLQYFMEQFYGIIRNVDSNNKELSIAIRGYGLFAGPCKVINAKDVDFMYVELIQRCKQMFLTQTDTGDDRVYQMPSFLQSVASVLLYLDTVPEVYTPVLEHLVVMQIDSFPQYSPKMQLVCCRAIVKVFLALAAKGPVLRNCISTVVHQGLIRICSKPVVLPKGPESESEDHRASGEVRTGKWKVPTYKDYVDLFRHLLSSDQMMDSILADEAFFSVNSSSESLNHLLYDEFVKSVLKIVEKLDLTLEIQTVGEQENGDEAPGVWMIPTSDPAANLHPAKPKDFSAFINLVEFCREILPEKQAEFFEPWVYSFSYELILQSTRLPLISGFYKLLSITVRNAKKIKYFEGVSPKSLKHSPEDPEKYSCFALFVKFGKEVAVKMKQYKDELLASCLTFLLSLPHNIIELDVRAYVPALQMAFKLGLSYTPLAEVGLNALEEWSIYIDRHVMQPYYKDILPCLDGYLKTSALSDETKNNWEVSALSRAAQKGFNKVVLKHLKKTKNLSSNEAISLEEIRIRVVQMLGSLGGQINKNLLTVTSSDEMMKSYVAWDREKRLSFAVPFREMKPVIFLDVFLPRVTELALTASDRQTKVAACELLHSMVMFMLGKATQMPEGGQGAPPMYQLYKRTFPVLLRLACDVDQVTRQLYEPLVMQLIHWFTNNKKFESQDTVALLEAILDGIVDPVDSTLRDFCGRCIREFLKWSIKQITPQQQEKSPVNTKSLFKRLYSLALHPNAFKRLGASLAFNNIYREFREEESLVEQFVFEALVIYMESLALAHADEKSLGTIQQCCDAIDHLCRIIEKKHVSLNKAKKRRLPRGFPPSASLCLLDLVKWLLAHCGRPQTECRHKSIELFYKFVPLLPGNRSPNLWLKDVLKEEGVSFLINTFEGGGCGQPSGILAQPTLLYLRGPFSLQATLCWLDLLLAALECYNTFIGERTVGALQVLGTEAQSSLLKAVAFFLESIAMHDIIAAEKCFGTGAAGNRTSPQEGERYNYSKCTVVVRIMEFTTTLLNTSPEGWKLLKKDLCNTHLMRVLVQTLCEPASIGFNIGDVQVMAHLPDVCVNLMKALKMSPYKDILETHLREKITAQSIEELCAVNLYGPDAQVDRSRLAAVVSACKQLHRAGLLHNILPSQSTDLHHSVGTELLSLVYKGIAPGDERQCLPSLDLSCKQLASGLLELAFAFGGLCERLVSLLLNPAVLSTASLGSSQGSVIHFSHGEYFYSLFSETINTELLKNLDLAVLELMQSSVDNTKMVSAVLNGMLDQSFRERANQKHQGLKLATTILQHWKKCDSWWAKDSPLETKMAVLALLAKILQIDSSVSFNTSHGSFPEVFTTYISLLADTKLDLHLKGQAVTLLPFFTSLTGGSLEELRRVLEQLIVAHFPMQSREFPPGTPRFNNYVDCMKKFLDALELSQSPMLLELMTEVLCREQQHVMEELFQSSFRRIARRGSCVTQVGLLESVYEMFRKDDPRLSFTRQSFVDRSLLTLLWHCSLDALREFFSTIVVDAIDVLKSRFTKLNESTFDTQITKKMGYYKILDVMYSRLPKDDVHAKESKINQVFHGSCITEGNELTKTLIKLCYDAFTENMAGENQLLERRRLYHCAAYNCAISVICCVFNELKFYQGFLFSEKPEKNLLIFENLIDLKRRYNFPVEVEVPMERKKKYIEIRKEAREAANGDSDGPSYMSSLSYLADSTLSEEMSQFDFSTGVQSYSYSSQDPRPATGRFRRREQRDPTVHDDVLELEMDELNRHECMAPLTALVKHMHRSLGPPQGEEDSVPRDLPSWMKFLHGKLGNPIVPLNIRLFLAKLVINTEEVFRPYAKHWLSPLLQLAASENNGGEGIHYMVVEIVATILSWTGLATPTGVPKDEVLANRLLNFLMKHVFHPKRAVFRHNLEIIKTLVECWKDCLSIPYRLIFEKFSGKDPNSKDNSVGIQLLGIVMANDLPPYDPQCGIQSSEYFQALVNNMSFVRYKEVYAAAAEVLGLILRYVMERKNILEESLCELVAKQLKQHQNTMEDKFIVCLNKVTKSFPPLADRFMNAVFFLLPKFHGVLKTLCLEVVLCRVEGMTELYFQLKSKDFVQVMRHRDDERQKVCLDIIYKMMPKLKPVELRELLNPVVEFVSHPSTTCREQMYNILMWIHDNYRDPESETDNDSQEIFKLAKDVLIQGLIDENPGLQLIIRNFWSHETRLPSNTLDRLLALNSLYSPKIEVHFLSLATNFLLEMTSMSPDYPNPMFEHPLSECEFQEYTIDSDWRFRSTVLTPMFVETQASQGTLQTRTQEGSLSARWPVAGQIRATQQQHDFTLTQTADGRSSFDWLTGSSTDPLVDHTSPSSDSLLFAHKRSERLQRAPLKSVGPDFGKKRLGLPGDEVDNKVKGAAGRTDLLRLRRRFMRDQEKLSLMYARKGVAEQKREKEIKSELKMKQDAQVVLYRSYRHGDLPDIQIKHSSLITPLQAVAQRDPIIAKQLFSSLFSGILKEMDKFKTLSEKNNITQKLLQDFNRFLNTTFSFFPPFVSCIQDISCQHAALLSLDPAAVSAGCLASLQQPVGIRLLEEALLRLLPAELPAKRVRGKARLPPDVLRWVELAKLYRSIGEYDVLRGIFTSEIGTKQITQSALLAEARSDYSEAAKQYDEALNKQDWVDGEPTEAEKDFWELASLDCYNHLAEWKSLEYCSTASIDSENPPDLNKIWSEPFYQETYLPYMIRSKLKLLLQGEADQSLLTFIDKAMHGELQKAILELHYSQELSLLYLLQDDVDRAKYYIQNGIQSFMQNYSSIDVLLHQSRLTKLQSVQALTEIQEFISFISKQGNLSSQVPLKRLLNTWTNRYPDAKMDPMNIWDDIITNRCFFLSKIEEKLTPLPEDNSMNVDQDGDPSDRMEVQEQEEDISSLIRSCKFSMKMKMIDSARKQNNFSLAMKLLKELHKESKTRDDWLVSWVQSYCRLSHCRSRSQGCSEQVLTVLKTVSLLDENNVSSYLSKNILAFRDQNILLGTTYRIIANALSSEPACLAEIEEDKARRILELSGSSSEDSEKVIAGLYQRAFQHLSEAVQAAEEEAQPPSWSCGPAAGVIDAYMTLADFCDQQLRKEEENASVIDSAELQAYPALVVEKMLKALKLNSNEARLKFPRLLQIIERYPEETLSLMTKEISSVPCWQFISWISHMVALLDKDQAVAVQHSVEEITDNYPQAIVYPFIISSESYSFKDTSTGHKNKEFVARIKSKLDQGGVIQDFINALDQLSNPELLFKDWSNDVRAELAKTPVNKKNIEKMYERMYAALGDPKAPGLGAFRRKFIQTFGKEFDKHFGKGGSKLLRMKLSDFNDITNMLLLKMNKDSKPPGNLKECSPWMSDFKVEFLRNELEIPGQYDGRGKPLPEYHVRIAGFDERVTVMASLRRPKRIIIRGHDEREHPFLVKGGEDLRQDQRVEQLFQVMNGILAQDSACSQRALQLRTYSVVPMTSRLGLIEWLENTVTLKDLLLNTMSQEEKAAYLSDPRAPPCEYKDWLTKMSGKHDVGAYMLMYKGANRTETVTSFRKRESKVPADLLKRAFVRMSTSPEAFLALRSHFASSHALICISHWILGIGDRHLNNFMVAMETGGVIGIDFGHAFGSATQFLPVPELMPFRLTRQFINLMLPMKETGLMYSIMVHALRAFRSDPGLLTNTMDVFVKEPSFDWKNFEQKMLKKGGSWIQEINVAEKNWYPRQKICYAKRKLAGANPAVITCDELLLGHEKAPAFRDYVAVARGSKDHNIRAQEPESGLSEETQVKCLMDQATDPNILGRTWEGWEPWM
UniProt P09874: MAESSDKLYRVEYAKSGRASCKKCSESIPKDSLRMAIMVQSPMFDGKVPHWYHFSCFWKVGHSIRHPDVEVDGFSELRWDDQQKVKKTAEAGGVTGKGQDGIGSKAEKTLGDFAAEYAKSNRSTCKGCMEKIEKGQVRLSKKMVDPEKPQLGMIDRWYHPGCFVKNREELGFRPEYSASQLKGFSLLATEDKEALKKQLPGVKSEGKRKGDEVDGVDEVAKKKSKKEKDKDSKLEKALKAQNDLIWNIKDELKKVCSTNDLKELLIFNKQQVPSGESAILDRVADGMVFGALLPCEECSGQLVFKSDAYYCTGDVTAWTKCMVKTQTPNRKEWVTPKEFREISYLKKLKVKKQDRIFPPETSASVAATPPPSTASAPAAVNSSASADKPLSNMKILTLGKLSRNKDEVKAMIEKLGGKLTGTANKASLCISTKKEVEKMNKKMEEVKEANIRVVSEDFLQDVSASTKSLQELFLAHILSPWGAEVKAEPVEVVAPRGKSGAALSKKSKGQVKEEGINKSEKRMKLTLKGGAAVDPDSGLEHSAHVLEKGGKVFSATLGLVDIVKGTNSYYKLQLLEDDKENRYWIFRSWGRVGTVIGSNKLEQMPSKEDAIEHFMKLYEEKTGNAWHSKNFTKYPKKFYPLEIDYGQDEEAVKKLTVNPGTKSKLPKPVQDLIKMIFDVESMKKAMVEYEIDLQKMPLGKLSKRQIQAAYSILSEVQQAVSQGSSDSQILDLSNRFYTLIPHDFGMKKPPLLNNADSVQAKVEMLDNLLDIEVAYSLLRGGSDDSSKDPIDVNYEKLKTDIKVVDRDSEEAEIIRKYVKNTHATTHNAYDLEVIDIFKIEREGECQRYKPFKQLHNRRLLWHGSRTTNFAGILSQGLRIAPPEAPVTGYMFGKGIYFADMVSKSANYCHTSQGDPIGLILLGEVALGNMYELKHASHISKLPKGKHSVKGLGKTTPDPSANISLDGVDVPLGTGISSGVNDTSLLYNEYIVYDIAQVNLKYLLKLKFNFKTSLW
UniProt Q9GZV5: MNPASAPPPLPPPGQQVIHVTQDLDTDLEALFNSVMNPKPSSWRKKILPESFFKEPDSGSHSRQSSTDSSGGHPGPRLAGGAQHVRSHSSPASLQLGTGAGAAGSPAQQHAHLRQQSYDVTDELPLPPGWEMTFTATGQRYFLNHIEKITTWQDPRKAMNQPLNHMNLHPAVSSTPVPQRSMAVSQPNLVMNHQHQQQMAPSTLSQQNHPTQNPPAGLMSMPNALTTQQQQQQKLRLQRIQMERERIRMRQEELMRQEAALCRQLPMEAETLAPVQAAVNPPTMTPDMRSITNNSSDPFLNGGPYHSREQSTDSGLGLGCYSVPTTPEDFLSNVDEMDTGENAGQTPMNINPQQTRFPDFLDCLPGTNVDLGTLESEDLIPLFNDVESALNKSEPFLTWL
UniProt P12956: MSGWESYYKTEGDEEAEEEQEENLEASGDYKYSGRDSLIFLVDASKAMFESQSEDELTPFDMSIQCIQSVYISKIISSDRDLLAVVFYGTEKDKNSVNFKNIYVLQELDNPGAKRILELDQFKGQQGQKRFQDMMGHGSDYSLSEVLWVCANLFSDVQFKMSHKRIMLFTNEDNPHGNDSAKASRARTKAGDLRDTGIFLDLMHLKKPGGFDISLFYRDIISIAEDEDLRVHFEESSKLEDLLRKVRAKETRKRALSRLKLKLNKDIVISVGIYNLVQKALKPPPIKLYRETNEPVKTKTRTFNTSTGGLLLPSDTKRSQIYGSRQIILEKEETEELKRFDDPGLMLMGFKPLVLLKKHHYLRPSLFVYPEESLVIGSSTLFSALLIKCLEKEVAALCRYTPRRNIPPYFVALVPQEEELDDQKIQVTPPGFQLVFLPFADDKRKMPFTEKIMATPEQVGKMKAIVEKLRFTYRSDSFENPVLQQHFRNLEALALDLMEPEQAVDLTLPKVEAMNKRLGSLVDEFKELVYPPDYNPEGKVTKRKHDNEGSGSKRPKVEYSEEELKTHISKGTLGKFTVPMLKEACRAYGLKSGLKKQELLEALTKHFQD

Assays:
Assay in all cases: affinity purification with mass spectrometry; anti-Myc IP (protein A and G Dynabeads) of doxycycline-induced MYC/FLAG WT or NLS mutant TEAD3 from HEK293 and Detroit 562 whole cell lysates; 20 mM Tris-HCl pH 7.4, 150 mM NaCl, 0.5% NP-40, 2 mM MgCl2, universal nuclease; isotype IgG IP as control; GeLC-MS, SAINTexpress scoring; three biological replicates
[1] = biological target: WT TEAD3-Myc/Flag (human) (UniProt Q99594)
[2] = biological target: NLS mutant TEAD3-Myc/Flag (human) (UniProt Q99594)
[3] = biological target: NLS mutant TEAD3-Myc/Flag (human) (UniProt Q99594); remark: listed apart in the source
[4] = biological target: WT TEAD3-Myc/Flag (human) (UniProt Q99594); remark: listed apart in the source

- binding [1]: binds
Molecule: X-ray repair cross-complementing protein 5 (XRCC5) (from UniProt P13010 1-732)

- binding [2]: binds
Molecule: Yes-associated protein (YAP) (from UniProt P46937 1-504)

- binding [1]: binds
Molecule: DNA-dependent protein kinase, catalytic subunit (PRKDC/DNAPKcs) (from UniProt P78527 1-4128)

- binding [1]: binds
Molecule: poly(ADP-ribose) polymerase 1 (PARP1) (from UniProt P09874 1-1014)

- binding [1]: binds
Molecule: Rap1-interacting factor 1 (RIF1) (from UniProt Q5UIP0 1-2472)

- binding [2]: binds
- binding [1]: binds
Molecule: transcriptional co-activator with PDZ-binding motif (TAZ) (from UniProt Q9GZV5 1-400)

- binding [1]: binds
Molecule: X-ray repair cross-complementing protein 6 (XRCC6) (from UniProt P12956 1-609)

- binding [3]: binds
- binding [4]: binds
B1: VGLL4 (protein, UniProt Q14135 1-290)
chain: METPLDVLSRAASLVHADDEKREAALRGEPRIQTLPVASALSSHRTGPPPISPSKRKFSMEPGDEDLDCDNDHVSKMSRIFNPHLNKTANGDCRRDPRERSRSPIERAVAPTMSLHGSHLYTSLPSLGLEQPLALTKNSLDASRPAGLSPTLTPGERQQNRPSVITCASAGARNCNLSHCPIAHSGCAAPGPASYRRPPSAATTCDPVVEEHFRRSLGKNYKEPEPAPNSVSITGSVDDHFAKALGDTWLQIKAAKDGASSSPESASRRGQPASPSAHMVSHSHSPSVVS
